Laboratory results reported in paper PMC7281538.
Results are given in words; binding and its absence hold for the method and conditions named. Some binding calls cover weakened binding; strength is not graded here.

Sequences of proteins named here, by UniProt entry; tags and fusion partners are left off.
UniProt P25098: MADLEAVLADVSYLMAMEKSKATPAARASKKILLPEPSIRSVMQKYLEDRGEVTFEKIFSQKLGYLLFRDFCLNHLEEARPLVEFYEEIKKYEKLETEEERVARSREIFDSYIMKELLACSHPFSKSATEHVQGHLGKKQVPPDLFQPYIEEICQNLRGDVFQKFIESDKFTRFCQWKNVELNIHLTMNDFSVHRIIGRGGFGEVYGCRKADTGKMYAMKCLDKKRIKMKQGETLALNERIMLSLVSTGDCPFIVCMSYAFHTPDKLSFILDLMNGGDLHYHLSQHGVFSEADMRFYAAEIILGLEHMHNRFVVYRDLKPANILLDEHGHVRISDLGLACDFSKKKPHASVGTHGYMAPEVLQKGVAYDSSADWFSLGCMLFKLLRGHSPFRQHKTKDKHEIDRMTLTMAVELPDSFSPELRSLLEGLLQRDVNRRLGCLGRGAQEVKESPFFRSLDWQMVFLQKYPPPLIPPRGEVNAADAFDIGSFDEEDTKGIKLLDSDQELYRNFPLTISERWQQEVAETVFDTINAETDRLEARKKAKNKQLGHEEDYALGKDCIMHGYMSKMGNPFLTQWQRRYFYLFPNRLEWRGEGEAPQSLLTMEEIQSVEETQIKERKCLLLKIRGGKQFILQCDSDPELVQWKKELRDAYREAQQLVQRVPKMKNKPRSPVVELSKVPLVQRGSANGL
UniProt Q15717: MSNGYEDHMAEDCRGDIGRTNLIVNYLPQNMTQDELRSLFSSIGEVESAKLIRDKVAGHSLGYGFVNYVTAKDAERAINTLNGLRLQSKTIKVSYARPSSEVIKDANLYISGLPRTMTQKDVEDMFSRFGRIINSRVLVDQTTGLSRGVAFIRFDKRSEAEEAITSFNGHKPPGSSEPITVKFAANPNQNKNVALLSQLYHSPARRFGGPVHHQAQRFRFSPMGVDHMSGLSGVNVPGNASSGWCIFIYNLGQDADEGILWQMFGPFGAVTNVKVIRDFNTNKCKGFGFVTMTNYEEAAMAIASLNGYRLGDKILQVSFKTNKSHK

Target: recombinant GRK2 full-length protein (UniProt P25098)
Experiment: far-Western, overlay or dot blot; GST-tagged GRK2 fragments (2 µg) and recombinant full-length GRK2 spotted on nitrocellulose; incubated 4 h at 37 °C with GST-HuR (2 µg/mL) in 20 mM Tris-HCl pH 7.5, 100 mM NaCl, 1 mM EDTA, 0.3% NP-40, 10% glycerol, 0.5 mM NaF, 1 mM Na3VO4; both purified

GST-HuR (ELAV-like protein 1, Human antigen R) (from UniProt Q15717 1-326)
binding: binds
